No constants are given. Whether binding was seen depends on the method and setting. Tags and fused reporters may be left off the sequences shown.

The target of the experiment is T1, GAMETOPHYTIC FACTOR 1 (GFA1), full length, fused to the Gal4 DNA-binding domain (Arabidopsis) (UniProt Q9LNC5).
T1 sequence: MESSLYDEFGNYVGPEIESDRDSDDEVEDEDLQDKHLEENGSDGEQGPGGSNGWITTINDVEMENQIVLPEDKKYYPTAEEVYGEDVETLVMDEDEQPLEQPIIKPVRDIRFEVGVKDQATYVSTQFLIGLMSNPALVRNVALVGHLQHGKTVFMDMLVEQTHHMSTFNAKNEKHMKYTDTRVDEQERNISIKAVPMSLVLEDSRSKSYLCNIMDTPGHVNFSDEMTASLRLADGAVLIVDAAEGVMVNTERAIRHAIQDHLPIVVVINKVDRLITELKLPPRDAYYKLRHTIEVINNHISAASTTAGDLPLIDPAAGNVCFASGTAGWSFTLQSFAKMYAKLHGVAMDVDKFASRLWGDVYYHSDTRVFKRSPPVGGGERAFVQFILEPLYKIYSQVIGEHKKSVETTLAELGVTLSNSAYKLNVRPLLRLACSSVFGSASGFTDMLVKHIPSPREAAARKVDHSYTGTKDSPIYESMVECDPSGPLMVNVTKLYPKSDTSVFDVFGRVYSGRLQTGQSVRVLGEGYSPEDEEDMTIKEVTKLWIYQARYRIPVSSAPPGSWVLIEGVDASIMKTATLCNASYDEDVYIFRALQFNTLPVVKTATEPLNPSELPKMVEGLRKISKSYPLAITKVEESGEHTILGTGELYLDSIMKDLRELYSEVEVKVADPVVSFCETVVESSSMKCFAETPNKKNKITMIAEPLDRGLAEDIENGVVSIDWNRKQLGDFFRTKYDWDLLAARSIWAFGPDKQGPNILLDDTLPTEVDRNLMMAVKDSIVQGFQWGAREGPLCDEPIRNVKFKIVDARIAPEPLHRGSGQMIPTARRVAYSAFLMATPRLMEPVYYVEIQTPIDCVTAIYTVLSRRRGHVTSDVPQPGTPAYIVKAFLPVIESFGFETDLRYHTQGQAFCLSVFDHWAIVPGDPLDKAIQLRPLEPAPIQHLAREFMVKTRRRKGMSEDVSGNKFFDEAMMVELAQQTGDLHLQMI
The experiment in a line: two-hybrid; S. cerevisiae Y2H gold; RID1 or its fragments in pGADT7 (AD), GFA1 in pGBKT7 (BD); growth on SD/−Trp/−Leu/−His/−Ade and blue colour with X-α-gal; 30 °C, 3–5 d.

Take “RID1 segment containing the OB-fold domain, fused to the Gal4 activation domain (Arabidopsis) (domain or fragment)”: the binding entry was “no binding”.

Take “RID1 segment containing the HA2 domain, fused to the Gal4 activation domain (Arabidopsis) (domain or fragment)”: the binding result is listed as “no binding”.
